Measurements as given in the supplement of paper PMC8728848.
Some of the results follow.

Legend:
Assay in all cases: glycan array binding signal (z-score within array); higher = stronger binding
Details in all cases: glycan notation: IUPAC condensed, linker removed
[1] = target: GlcNAc(b1-2)Gal(b1-3)GalNAc
How it was run: (§1)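 Glycan array data were curated from 3228 arrays in the Consortium for Functional Glycomics database and kept only where the protein sequence was available. Glycan names were converted to IUPAC-condensed notation, and columns mapping to the same glycan were averaged. The binding signal is a within-array Z-score, averaged across arrays of the same protein sequence at different concentrations or buffers and across linkers. Negative Z-scores can be read as non-binding.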

[2] = target: GlcNAc(b1-2)Man(a1-3)[GlcNAc(b1-2)Man(a1-6)]Man(b1-4)GlcNAc(b1-4)GlcNAc
How it was run: as §1

GlcNAc(b1-3)Gal = target: GlcNAc(b1-3)Gal
How it was run: as §1

[3] = target: GlcNAc(b1-3)Gal(b1-3)GalNAc
How it was run: as §1

GlcNAc(b1-3)Gal(b1-4)Glc = target: GlcNAc(b1-3)Gal(b1-4)Glc
How it was run: as §1

[4] = target: GlcNAc(b1-3)Gal(b1-4)GlcNAc
How it was run: as §1

[5] = target: GlcNAc(b1-3)Gal(b1-4)GlcNAc(b1-3)Gal(b1-4)GlcNAc
How it was run: as §1

GlcNAc(b1-3)GalNAc = target: GlcNAc(b1-3)GalNAc
How it was run: as §1

[6] = target: GlcNAc(b1-3)[GlcNAc(b1-4)][GlcNAc(b1-6)]GlcNAc
How it was run: as §1

[7] = target: GlcNAc(b1-3)[GlcNAc(b1-6)]Gal(b1-4)GlcNAc
How it was run: as §1

[8] = target: GlcNAc(b1-3)[GlcNAc(b1-6)]GalNAc
How it was run: as §1

[9] = target: GlcNAc(b1-4)Gal(b1-4)GlcNAc
How it was run: as §1

[10] = target: GlcNAc(b1-4)GlcNAc(b1-4)GlcNAc
How it was run: as §1

[11] = target: GlcNAc(b1-4)GlcNAc(b1-4)GlcNAc(b1-4)GlcNAc(b1-4)GlcNAc
How it was run: as §1

[12] = target: GlcNAc(b1-4)GlcNAc(b1-4)GlcNAc(b1-4)GlcNAc(b1-4)GlcNAc(b1-4)GlcNAc
How it was run: as §1

[13] = target: GlcNAc(b1-4)[GlcNAc(b1-6)]GalNAc
How it was run: as §1

[14] = target: GlcNAc(b1-6)Gal(b1-4)GlcNAc
How it was run: as §1

GlcNAc(b1-6)GalNAc = target: GlcNAc(b1-6)GalNAc
How it was run: as §1

Kdn(a2-3)Gal(b1-3)GlcNAc = target: Kdn(a2-3)Gal(b1-3)GlcNAc
How it was run: as §1

Kdn(a2-3)Gal(b1-4)GlcNAc = target: Kdn(a2-3)Gal(b1-4)GlcNAc
How it was run: as §1

[15] = target: Man(a1-2)Man(a1-2)Man(a1-3)Man
How it was run: as §1

[16] = target: Man(a1-2)Man(a1-2)Man(a1-6)[Man(a1-3)]Man
How it was run: as §1

Man(a1-2)Man(a1-3)Man = target: Man(a1-2)Man(a1-3)Man
How it was run: as §1

[17] = target: Man(a1-2)Man(a1-3)[Man(a1-2)Man(a1-6)]Man
How it was run: as §1

[18] = target: Man(a1-2)Man(a1-3)[Man(a1-2)Man(a1-6)]Man(a1-6)[Man(a1-2)Man(a1-2)Man(a1-3)]Man(b1-4)GlcNAc(b1-4)GlcNAc
How it was run: as §1

[19] = target: Man(a1-2)Man(a1-3)[Man(a1-2)Man(a1-6)]Man(a1-6)[Man(a1-3)[Man(a1-6)]Man(a1-6)]Man(b1-4)GlcNAc(b1-4)GlcNAc
How it was run: as §1

[20] = target: Man(a1-2)Man(a1-3)[Man(a1-6)]Man(a1-6)[Man(a1-2)Man(a1-3)]Man(b1-4)GlcNAc(b1-4)GlcNAc
How it was run: as §1

[21] = target: Man(a1-2)Man(a1-6)[Man(a1-3)]Man(a1-6)[Man(a1-2)Man(a1-2)Man(a1-3)]Man(b1-4)GlcNAc(b1-4)GlcNAc
How it was run: as §1

Man(a1-3)[Man(a1-6)]Man = target: Man(a1-3)[Man(a1-6)]Man
How it was run: as §1

[22] = target: Man(a1-3)[Man(a1-6)]Man(a1-6)[Man(a1-3)]Man(b1-4)GlcNAc(b1-4)GlcNAc
How it was run: as §1

[23] = target: Man(a1-3)[Man(a1-6)]Man(b1-4)GlcNAc(b1-4)GlcNAc
How it was run: as §1

Man(b1-4)GlcNAc = target: Man(b1-4)GlcNAc
How it was run: as §1

Neu5Ac(a2-3)Gal = target: Neu5Ac(a2-3)Gal
How it was run: as §1

[24] = target: Neu5Ac(a2-3)Gal(b1-3)GalNAc
How it was run: as §1

[25] = target: Neu5Ac(a2-3)Gal(b1-3)GalNAc(b1-3)Gal(a1-4)Gal(b1-4)Glc
How it was run: as §1

[26] = target: Neu5Ac(a2-3)Gal(b1-3)GalNAc(b1-3)Gal(b1-4)GlcNAc
How it was run: as §1

[27] = target: Neu5Ac(a2-3)Gal(b1-3)GalNAc(b1-4)[Neu5Ac(a2-3)]Gal(b1-4)Glc
How it was run: as §1

[28] = target: Neu5Ac(a2-3)Gal(b1-3)GalNAc6S
How it was run: as §1

[29] = target: Neu5Ac(a2-3)Gal(b1-3)GlcNAc
How it was run: as §1

[30] = target: Neu5Ac(a2-3)Gal(b1-3)GlcNAc(b1-3)Gal(b1-3)GlcNAc
How it was run: as §1

[31] = target: Neu5Ac(a2-3)Gal(b1-3)GlcNAc6S
How it was run: as §1

[32] = target: Neu5Ac(a2-3)Gal(b1-3)[Fuc(a1-4)]GlcNAc
How it was run: as §1

[33] = target: Neu5Ac(a2-3)Gal(b1-3)[Fuc(a1-4)]GlcNAc(b1-3)Gal(b1-4)[Fuc(a1-3)]GlcNAc
How it was run: as §1

[34] = target: Neu5Ac(a2-3)Gal(b1-3)[Neu5Ac(a2-3)Gal(b1-4)]GlcNAc
How it was run: as §1

[35] = target: Neu5Ac(a2-3)Gal(b1-3)[Neu5Ac(a2-6)]GalNAc
How it was run: as §1

B1: CD23 (Homo sapiens) (protein)
chain: MELQVSSGFVCNTCPEKWINFQRKCYYFGKGTKQWVHARYACDDMEGQLVSIHSPEEQDFLTKHASHTGSWIGLRNLDLKGEFIWVDGSHVDYSNWAPGEPTSRSQGEDCVMMRGSGRWNDAFCDRKLGAWVCDRLATCTPPASEGSAESMGPDSRPDPDGRLPTPSAPLHS
[1]
  glycan array binding signal (z-score): 0.682
[2]
  glycan array binding signal (z-score): -0.157
GlcNAc(b1-3)Gal
  glycan array binding signal (z-score): -0.438
[3]
  glycan array binding signal (z-score): 1.43
GlcNAc(b1-3)Gal(b1-4)Glc
  glycan array binding signal (z-score): -0.494
[4]
  glycan array binding signal (z-score): -0.603
[5]
  glycan array binding signal (z-score): -0.545
GlcNAc(b1-3)GalNAc
  glycan array binding signal (z-score): -0.037
[6]
  glycan array binding signal (z-score): 0.272
[7]
  glycan array binding signal (z-score): -0.28
[8]
  glycan array binding signal (z-score): -0.473
[9]
  glycan array binding signal (z-score): -0.324
[10]
  glycan array binding signal (z-score): -0.139
[11]
  glycan array binding signal (z-score): -0.214
[12]
  glycan array binding signal (z-score): -0.781
[13]
  glycan array binding signal (z-score): -0.533
[14]
  glycan array binding signal (z-score): -0.37
GlcNAc(b1-6)GalNAc
  glycan array binding signal (z-score): -0.067
Kdn(a2-3)Gal(b1-3)GlcNAc
  glycan array binding signal (z-score): -0.186
Kdn(a2-3)Gal(b1-4)GlcNAc
  glycan array binding signal (z-score): 0.298
[15]
  glycan array binding signal (z-score): -0.2
[16]
  glycan array binding signal (z-score): -0.299
Man(a1-2)Man(a1-3)Man
  glycan array binding signal (z-score): 0.191
[17]
  glycan array binding signal (z-score): -0.146
[18]
  glycan array binding signal (z-score): -0.233
[19]
  glycan array binding signal (z-score): 0.212
[20]
  glycan array binding signal (z-score): 0.201
[21]
  glycan array binding signal (z-score): -0.425
Man(a1-3)[Man(a1-6)]Man
  glycan array binding signal (z-score): 0.253
[22]
  glycan array binding signal (z-score): 0.18
[23]
  glycan array binding signal (z-score): -0.352
Man(b1-4)GlcNAc
  glycan array binding signal (z-score): -0.469
Neu5Ac(a2-3)Gal
  glycan array binding signal (z-score): -0.385
[24]
  glycan array binding signal (z-score): -0.417
[25]
  glycan array binding signal (z-score): -0.271
[26]
  glycan array binding signal (z-score): -0.388
[27]
  glycan array binding signal (z-score): -0.58
[28]
  glycan array binding signal (z-score): -0.3
[29]
  glycan array binding signal (z-score): -0.073
[30]
  glycan array binding signal (z-score): -0.189
[31]
  glycan array binding signal (z-score): -0.588
[32]
  glycan array binding signal (z-score): -0.278
[33]
  glycan array binding signal (z-score): 0.596
[34]
  glycan array binding signal (z-score): 0.023
[35]
  glycan array binding signal (z-score): -0.537
